# From paper PMC5712633
# By UniProt entry, the sequences of proteins in these tests, tags left out. Where a name states a change or a piece, a line headed by the entry shows the natural chain unless it says otherwise. Residues count along the entry.
# UniProt Q3KR86: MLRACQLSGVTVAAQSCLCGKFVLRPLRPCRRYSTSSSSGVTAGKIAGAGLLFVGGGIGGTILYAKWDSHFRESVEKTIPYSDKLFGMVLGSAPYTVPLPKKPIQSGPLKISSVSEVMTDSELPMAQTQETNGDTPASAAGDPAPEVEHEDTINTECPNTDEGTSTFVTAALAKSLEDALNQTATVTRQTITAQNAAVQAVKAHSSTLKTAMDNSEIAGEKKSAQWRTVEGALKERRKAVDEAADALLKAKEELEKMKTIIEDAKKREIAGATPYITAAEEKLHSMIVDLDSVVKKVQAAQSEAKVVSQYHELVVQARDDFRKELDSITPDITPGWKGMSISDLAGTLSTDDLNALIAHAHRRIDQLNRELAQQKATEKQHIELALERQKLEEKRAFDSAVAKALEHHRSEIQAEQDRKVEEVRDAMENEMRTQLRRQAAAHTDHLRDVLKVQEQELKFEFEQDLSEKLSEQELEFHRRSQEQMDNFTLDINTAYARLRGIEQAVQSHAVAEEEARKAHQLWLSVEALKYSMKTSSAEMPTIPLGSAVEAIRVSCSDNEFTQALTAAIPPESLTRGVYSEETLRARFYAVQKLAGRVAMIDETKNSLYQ
# UniProt Q2TA68, residues 88-960: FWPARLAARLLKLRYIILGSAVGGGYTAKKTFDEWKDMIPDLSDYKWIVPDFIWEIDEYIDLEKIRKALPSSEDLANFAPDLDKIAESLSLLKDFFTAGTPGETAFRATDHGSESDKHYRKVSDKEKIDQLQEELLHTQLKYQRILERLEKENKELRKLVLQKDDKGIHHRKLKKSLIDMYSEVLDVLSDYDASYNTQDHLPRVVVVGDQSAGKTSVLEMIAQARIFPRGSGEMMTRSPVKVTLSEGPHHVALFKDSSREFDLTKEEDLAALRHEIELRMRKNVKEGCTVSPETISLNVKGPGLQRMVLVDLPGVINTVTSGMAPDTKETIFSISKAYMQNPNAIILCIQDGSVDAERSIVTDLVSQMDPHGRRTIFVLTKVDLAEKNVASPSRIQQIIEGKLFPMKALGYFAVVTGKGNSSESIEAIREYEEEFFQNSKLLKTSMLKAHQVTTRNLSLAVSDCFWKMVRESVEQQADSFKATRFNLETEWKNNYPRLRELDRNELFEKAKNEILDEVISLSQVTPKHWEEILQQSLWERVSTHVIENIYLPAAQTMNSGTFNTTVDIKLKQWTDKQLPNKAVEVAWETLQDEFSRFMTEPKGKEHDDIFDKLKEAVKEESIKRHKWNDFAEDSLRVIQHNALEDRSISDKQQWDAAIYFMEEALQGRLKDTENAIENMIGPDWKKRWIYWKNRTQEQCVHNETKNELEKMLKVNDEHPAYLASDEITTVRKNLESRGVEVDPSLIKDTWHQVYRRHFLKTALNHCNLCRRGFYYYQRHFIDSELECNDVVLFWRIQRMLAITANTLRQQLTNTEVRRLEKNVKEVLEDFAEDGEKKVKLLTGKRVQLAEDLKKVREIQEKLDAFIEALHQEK
# Results are given in words; binding and its absence hold for the method and conditions named. In cells and extracts the contact can be indirect. A result given as binding can be weak or reduced; the word gives no strength.
# Target: MIC60 (UniProt Q3KR86)
# Test: co-IP; cell extracts (1 mg) of RNT cells (control, UnAG 1 uM, I/Reo, UnAG+I/Reo) immunoprecipitated with anti-MIC60 and blotted for Opa1, or immunoprecipitated with anti-Opa1 and blotted for MIC60; protein-A-Sepharose beads; eluted by boiling in 1% SDS
substance,measurement,value
optic atrophy 1 (Opa1) protein (from UniProt Q2TA68 88-960),binding,binds
